Assay [1] deals with NLRP3 (mouse (endogenous in mouse brain and BV2 cells)) (UniProt Q8R4B8). Description: co-IP; BV2 cell lysates, IP with anti-NLRP3, with or without the p38 inhibitor SB203580, immunoblot.
For assay [2] the target is unchanged. Description: co-IP; mouse brain lysates, IP with anti-NLRP3 or anti-LAMP2A antibody, agarose beads, washed with RIPA buffer, immunoblot.

Chains of the proteins cited; added tags and fusions are not shown.
UniProt Q8R4B8: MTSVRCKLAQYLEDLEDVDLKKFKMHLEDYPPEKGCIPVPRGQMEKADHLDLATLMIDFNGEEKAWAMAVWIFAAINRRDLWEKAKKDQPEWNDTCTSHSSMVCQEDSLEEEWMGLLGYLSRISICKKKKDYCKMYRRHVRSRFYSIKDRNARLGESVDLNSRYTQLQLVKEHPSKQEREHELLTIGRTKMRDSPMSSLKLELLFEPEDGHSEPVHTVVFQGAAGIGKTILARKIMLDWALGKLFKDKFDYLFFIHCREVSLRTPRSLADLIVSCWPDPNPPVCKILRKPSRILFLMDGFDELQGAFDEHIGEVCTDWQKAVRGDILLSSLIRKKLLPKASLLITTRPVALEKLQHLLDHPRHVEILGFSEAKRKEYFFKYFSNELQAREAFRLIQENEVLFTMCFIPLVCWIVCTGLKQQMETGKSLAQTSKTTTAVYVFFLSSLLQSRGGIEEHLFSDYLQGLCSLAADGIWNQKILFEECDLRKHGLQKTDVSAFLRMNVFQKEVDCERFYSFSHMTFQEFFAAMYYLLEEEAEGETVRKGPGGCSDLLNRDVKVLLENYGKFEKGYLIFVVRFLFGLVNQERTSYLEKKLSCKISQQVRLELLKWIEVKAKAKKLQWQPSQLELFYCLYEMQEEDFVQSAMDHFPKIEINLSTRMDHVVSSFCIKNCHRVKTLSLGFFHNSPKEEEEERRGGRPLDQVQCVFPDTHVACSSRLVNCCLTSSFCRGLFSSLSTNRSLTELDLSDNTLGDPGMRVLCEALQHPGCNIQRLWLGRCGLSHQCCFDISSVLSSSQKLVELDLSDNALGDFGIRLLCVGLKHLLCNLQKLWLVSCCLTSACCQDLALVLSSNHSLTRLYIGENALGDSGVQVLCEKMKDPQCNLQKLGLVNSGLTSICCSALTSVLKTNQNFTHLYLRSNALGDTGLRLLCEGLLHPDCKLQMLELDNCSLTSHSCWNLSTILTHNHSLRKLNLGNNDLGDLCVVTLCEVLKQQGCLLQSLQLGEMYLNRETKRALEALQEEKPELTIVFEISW

These are yes or no findings as the source states them, for the method shown. In cells and extracts the contact can be indirect. Some results given as binding are weak or reduced against the parent protein; the word gives no strength.

B1: LAMP2A (receptor, UniProt P17047-1 26-415)
chain: LIVNLTDSKGTCLYAEWEMNFTITYETTNQTNKTITIAVPDKATHDGSSCGDDRNSAKIMIQFGFAVSWAVNFTKEASHYSIHDIVLSYNTSDSTVFPGAVAKGVHTVKNPENFKVPLDVIFKCNSVLTYNLTPVVQKYWGIHLQAFVQNGTVSKNEQVCEEDQTPTTVAPIIHTTAPSTTTTLTPTSTPTPTPTPTPTVGNYSIRNGNTTCLLATMGLQLNITEEKVPFIFNINPATTNFTGSCQPQSAQLRLNNSQIKYLDFIFAVKNEKRFYLKEVNVYMYLANGSAFNISNKNLSFWDAPLGSSYMCNKEQVLSVSRAFQINTFNLKVQPFNVTKGQYSTAQDCSADEDNFLVPIAVGAALGGVLILVLLAYFIGLKRHHTGYEQF
In the case of B1, the binding entry in assay [1] and in assay [2] was “binds” in each case.

The values above are taken from paper PMC8686293.
